Results published in PubChem BioAssay AID1508600 (Functional Genomics Laboratory (NCATS/FGL), 2020).
About 3,700 (7%) of roughly 53,000 sequences were called active.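 The calls were made as follows: active = gene knockdowns whose robust z-score for IL-1 alpha signal is at least 2 or at most -2, so actives lie on both sides; inactive = the rest.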 The list shows a part of the results.

Assay: Components of the Cytosolic LPS Sensing Pathway: Gene Identification via Genome-wide siRNA Screen
Conditions: RAW264.7 macrophages, IL-1a HTRF, actives lie on both sides, screened at 100 nM (by protocol), cells primed 5 h with Pam3CSK4 first
Source text: Non-canonical inflammasome activation by cytosolic LPS is a critical component of the host response to Gram-negative bacterial infection, however we lack a comprehensive understanding of the cellular processes that control this pathway. Here we describe a genome-wide siRNA screen to identify genes regulating the mouse macrophage IL-1 alpha response to cytosolic LPS.
RAW264.7 cells were maintained in complete DMEM media, comprising DMEM with 4.5 g/L glucose, 10% FBS (Gemini Bio-Products, West Sacramento, CA), 2 mM Glutamine (Lonza) and 20 mM HEPES (Lonza), hereafter complete DMEM.
The RNAi screen was conducted in 384-well format using the Ambion Silencer Mouse Genome siRNA Library (#4391425), which consists of three unique, nonoverlapping, nonpooled siRNAs for each of 17,000 gene targets. siRNA reagents ([…]) were stamped into 384-well white flat-bottom microplates (Corning, 3570) using a Velocity11 VPrep liquid handling system (Agilent) integrated into a BioCel robotic platform (Agilent) in columns 1-22, leaving columns 23-24 empty for negative (Ambion, Negative control #1) and positive (mouse Casp4) controls, respectively. The median value of each plate's negative control column was used to normalize sample wells, and the positive control was used to assess transfection efficiency and assay performance.
Lipofectamine RNAiMAX Transfection Reagent ([…]; Invitrogen) was added in […] serum-free, antibiotic-free media to plate wells using a Thermo Scientific Matrix WellMate and Microplate Stacker. Plates were incubated for 45 min at room temperature to allow for the sufficient formation of siRNA-lipid complexes. Cells were seeded at a density of 1x10^4 cells per well in 20 microL media containing 20% (vol/vol) FBS without antibiotics. The final concentration of siRNA in each well was 100 nM. Cells were cultured for 48h at 37 degrees C in 5% CO2 before addition of […] of TLR ligand Pam3CSK4 for 5 hours. The medium was then removed, replaced with […] growth media and cell were transfected with […] of LipidA and TransIT-TKO (Mirus) for 24 hour. At the end of the LipidA treatment, […] of supernatant was transferred to a 384 Greiner Bio-one non-binding low volume plate and […] of IL-1a HTRF reagent (Cisbio, 62MIL1APEH) was added and incubated at room temperature overnight. The plates were read on an EnVision plate reader (PerkinElmer). Cell viability was measured by adding 20ul Cell Titer Glo to the original plate and running a luminescence read on the EnVision. The quantified IL-1a signal for each siRNA gene-targeted well was divided by the median of the negative control wells and multiplied by 100 to achieve a negative control normalized value for each well/siRNA. This normalized value was then used to generate a robust z-score by first taking the log of each value and then by subtracting the median and dividing by the […].

Row | Sequence | z-score
1 | GGCAUUUCUCGACCUAUGGTT against Hoxc6 | inactive: 0.0965
2 | CCUUAAACCUCAGCUAAUGTT against Utp14b | inactive: 1.83
3 | AAAUCCUGUUAGGGAGUGUTT against Olfr57 | inactive: 0.96
4 | GGUUUUGUUGCAUGGUAAGTT against Ubb | inactive: -0.973
5 | CGAAACACACUGGUAAGUGTT against Col2a1 | inactive: -1.45
6 | GGCAUACCAAAAUCCAUUUTT against Egr1 | inactive: 1.2
7 | GGUUGAGAAGAAGAAGAAATT against Rpl6 | inactive: -0.0381
8 | GGCAUGUGCAUUUGCUACGTT against Lama1 | inactive: 0.375
9 | GGUCAUCAAUCUCACCACUTT against Tmem145 | inactive: -0.155
10 | GGAUCACAAGCUGGUGUUCTT against Mon1b | inactive: 1.84
11 | GCACAGAGUCUAGUGUUUATT against Ube2j2 | inactive: 0.325
12 | CGAGUGCUUCUCUUGACAUTT against Mrpl22 | inactive: -0.43
13 | GCAAUAAUGGCAAUUACGGTT against Slc35f4 | inactive: 1.13
14 | GGAGCUCAACGCAUUUUUCTT against Neurod2 | inactive: -0.0271
15 | GGCUGAAAAUGCAUGUAUGTT against Ptger1 | inactive: -0.14
16 | GGUGAACUGGAGUCAUUUATT against Cebpz | inactive: 0.321
17 | GGUAUAAAGAACUCUGUCATT against Cep78 | active: -2.49
18 | GCUAACAGUUCAUAGAAAATT against Nxn | inactive: 0.76
19 | GGCCAAGUUCGGCAUCUUUTT against Fuca2 | inactive: -0.738
20 | GGCAGAUUUGGCAAGACAATT against Nelfb | inactive: 0.489
21 | GGAGGUUUUUAAAUGUGUUTT against Sbk1 | inactive: 0.261
22 | GCAUUGGGUAUAAAGUAAGTT against Mgat4e | inactive: 1.86

Row | Sequence | z-score
23 | CCUGUAUACGCAGAACACUTT against Gpc1 | inactive: 0.929
24 | GCCACAAGUUAAUGCUCUUTT against Rfx5 | inactive: -0.898
25 | GGGUCUGCAUAGGUUGUUATT against Epm2a | inactive: 1.04
26 | CGGCUAGAUGAUCCUACCUTT against Tsga13 | inactive: -0.542
27 | GCAAUGUGUCAGGCACACATT against Pax2 | inactive: -0.16
28 | GGACCACAGCUGGAUAUAUTT against Sik2 | inactive: 0.277
29 | GGCAGAAGAAGAAGUUAUATT against Gja10 | inactive: 1.1
30 | GCUGAUGUGAAUGGCUCACTT against Gmeb2 | inactive: -1.02
31 | GUCCUUCUUCUUUGGGUUGTT against Olfr1356 | inactive: 1.22
32 | GCAAAUGGAUGGUUCUUGGTT against Tril | inactive: 0.0347
33 | CCCUGGCCAAACAUAGUGGTT against Efcab12 | inactive: 0.278
34 | GGAAGUUGGAAAAACAUUGTT against Zfp947 | inactive: 1.02
35 | GGCUUCAAGACUUGUGUGATT against Rdh1 | inactive: -1.07
36 | GGCUAAAGAAUAAAGAUCCTT against Cadm2 | inactive: 1.66
37 | GGAAGACCAAUAGUACUGCTT against Il1rn | inactive: -0.0282
38 | GGCUUUGAGAGUGGUGUAUTT against Sgsh | inactive: -1.53
39 | CCUCACCGAGUGGUUUAGCTT against Nlrx1 | inactive: -0.161
40 | GGAGGAGUUCCAGAUCCACTT against Pald1 | inactive: -0.356
41 | GGACAUCAUUGAUGGAUUUTT against Auts2 | inactive: 1.13
42 | GGUUCAAGGCAUUUUCUACTT against Olfr715 | inactive: 1.22
43 | GGAAUUGAGGUGAUGGAUATT against Sfxn4 | inactive: -0.144
44 | CUUAAAGUGAGAUGGUUUCTT against H2bc21 | inactive: 0.43

Row | Sequence | z-score
45 | GGACUGAAGUCCUUGACACTT against Lgi3 | inactive: -1.46
46 | GCACUUCGAUGAGUUGUGCTT against Def6 | inactive: 0.719
47 | CCACGUGUCUUAGAAUUAATT against Gas1 | inactive: 1.67
48 | GGCCAUUGCCAUUGUGUGUTT against Stambpl1 | inactive: 1.14
49 | CGUGUCCUGACCUUUCAACTT against Il22ra1 | inactive: 0.905
50 | CCUCACAGGCCUACGACAATT against Csrp2 | inactive: -0.284
51 | CCGUUGACAGAACAGUCCUTT against Vegfa | inactive: -0.376
52 | GGAGUGACUCCAAAUUUACTT against Brcc3 | inactive: -0.113
53 | GCAAUAGACAUUCAUCAGATT against Serpinb9c | inactive: -0.364
54 | CCUUACCAAUGUUCAUUUATT against Skint7 | inactive: -0.32
55 | GGUAAUGUCUUUGUACUAATT against Steap4 | inactive: -0.0471
56 | GGUGAUCGUGGUGUGGAACTT against Extl2 | inactive: 0.941
57 | CCAUUCCUUUAGAUUCGUUTT against Med26 | inactive: -0.564
58 | GGUCUUAAAAGAGAAGCCATT against Lonp2 | inactive: -1.15
59 | GGCCUAAAGGCUUUGAUGATT against Nars | inactive: -1.01
60 | GGACAGACCACACUUCAUGTT against Foxp3 | inactive: -0.494
61 | GCGCUUCCAAUAACAAAAATT against 1700123L14Rik | active: -2.19
62 | GGAGAUAUAAAGAAGCAUUTT against Fam214a | inactive: 0.95
63 | GGGCAAACCUUCUAAACUATT against Ttpa | inactive: 0.505
64 | GGUGGUUACAACCGAAGCATT against Fus | inactive: -0.994
65 | GGAGAAGUUGAUAGCUAAATT against Pax6 | inactive: 0.941
66 | GGAAGCUCACUAGUAACUUTT against Itgb5 | inactive: -0.859

Row | Sequence | z-score
67 | GGAUAAGGCUUUAUGAGAGTT against Cryga | inactive: -0.0719
68 | GGCAACGAUUGUGACUUAUTT against Odr4 | inactive: -0.312
69 | GGCCAUCAAGGUCUUUUCUTT against Washc1 | inactive: -1.34
70 | GGCCUUCAAAGCAAUAGGATT against Dnajc18 | inactive: -0.718
71 | GCCAUACUCUUUCUAAAAUTT against Tmem127 | inactive: 1.63
72 | GGAGAUUAUAGGGAAGCUCTT against Il3 | inactive: 0.82
73 | GGAUCCAAGUGAACGACCUTT against Ppp1r9b | inactive: -0.507
74 | CCUGGAAUACAAGACAUGATT against Ecm2 | inactive: 0.247
75 | GCCAUUGCUAUCCAUCGUGTT against Ddx39b | active: -2.57
76 | CCGACAGCUCUAAAGGAACTT against Celf6 | inactive: 0.838
77 | GGAGAAAGCUGCUCAUGAATT against Caml | inactive: -0.477
78 | CCAUCUCUAGAGCAAGACUTT against Cs | inactive: 0.892
79 | GGUUGUGACAAUGUGGUACTT against Coro1b | inactive: 1.15
80 | GCAAAUGGAUAACUUGUACTT against Epas1 | inactive: -0.865
81 | GGAAGAGCACCUCCAGUCATT against Rnf114 | inactive: -1.26
82 | CCUCUGCUUUGUUACUUCCTT against Olfr1431 | inactive: -0.287
83 | GGCAUGAGUUCUACCUUCUTT against Tssc4 | inactive: -0.301
84 | GGACAGAAUUAAGGAUGUCTT against Fdxr | inactive: -0.337
85 | CCACAAAUGAGCGCAGAGUTT against Erg | inactive: -0.616
86 | GGCCUUGGAACUUAAACGGTT against Dhdds | inactive: -0.0243
87 | CCCAUUAAUUCGACAACUATT against Ppp1r1c | inactive: 1.04
88 | GCCAAUGGAGGGUUGGAUUTT against Med16 | inactive: 0.0771

Quoted from the listing for reference:
Row | Sequence | z-score
29 | GGCAGAAGAAGAAGUUAUATT against Gja10 | inactive: 1.1
30 | GCUGAUGUGAAUGGCUCACTT against Gmeb2 | inactive: -1.02
31 | GUCCUUCUUCUUUGGGUUGTT against Olfr1356 | inactive: 1.22

More records follow:

Row | Sequence | z-score
89 | GGACAUUUCUUCUGUUACCTT against Ncmap | inactive: 0.816
90 | GCUAAUUAAGAAGAGAGCATT against Gclc | inactive: -0.566
91 | GGUUCCAGAUGUGAUCAGUTT against Tbc1d4 | inactive: 0.305
92 | GGGAUUAAACUGCUCUGUGTT against 1700019N19Rik | inactive: -0.383
93 | GGACCUGUUUUGGAAAUAUTT against Jchain | inactive: -0.613
94 | GCAGAAAAGGUCUACGUGCTT against Azgp1 | inactive: 1.8
95 | GCCGUCCUUACACCUUUAUTT against Olfr599 | inactive: -0.601
96 | GGGUUGAUAGAAGUUUUUATT against Cpeb1 | inactive: 0.612
97 | GCAGAAAUUAAGGCCUUAATT against Bicd1 | inactive: -0.248
98 | GGAGAAGAAAGGUUACAUCTT against Calml4 | inactive: -0.647
99 | GGAUCUUCAAUCUUUUUCATT against Skint11 | inactive: -0.37
100 | GGAUCAACCACAUCAGCUCTT against Hrh2 | inactive: -0.838
101 | GCCAAUGAAUACUUGCCCATT against Farp2 | inactive: -1.3
102 | GGAGGGUAUUAUUGACAUATT against Gnat1 | inactive: 0.651
103 | GGGACUCGGAUAUUCGUGUTT against Adcy7 | inactive: 0.888
104 | GGAUGGAAGAAGAAAGAAUTT against Enox2 | inactive: -1.94
105 | GGGUUACUGCUUUGAUAGUTT against Epcam | inactive: 0.0555
106 | CCGAAACCAGCGUAUCCUGTT against Cpn1 | inactive: -1.08
107 | GGAGGAUGCAAUUUUUAACTT against Sult1e1 | inactive: 0.771
